Data published in US20230234923A1.
No constants are given. Whether binding was seen depends on the method and setting. Binding seen in cells or lysates may run through a third protein. Some results given as binding are weak or reduced against the parent protein; the word gives no strength.

Assays:
[1] = molecular target: T1, adiponectin receptor 1 (AdipoR1) (UniProt Q91VH1); experiment: co-immunoprecipitation from RAW 264.7 lysates (anti-APPL1 or anti-MyD88 IP, immunoblot); control, LPS, AdipoAI or both
T1 sequence (looked up): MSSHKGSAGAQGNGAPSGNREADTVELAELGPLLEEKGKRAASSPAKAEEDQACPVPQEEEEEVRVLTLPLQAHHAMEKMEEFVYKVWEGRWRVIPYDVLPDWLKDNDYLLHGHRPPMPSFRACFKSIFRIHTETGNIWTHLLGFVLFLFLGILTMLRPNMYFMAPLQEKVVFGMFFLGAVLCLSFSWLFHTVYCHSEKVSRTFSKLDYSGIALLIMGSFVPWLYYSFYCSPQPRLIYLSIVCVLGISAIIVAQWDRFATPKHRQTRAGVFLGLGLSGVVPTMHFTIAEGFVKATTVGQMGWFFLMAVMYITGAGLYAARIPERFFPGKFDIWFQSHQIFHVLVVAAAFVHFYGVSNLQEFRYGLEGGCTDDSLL

[2] = molecular target: T1, adiponectin receptor 1 (AdipoR1); experiment: co-immunoprecipitation from LPS-induced RAW 264.7 cells (FIG. 6c)
[3] = molecular target: T1, adiponectin receptor 1 (AdipoR1); experiment: co-immunoprecipitation from LPS-induced RAW 264.7 cells (summary of the example)

Measured: binding

B1: APPL1 (adaptor protein containing pleckstrin homology domain, phosphotyrosine binding (PTB) domain, and leucine zipper motif) (protein, UniProt Q8K3H0 1-707, looked up)
chain: MPGIDKLPIEETLEDSPQTRSLLGVFEEDATAISNYMNQLYQAMHRIYDAQNELSAATHLTSKLLKEYEKQRFPLGGDDEVMSSTLQQFSKVIDELSSCHAVLSTQLADAMMFPISQFKERDLKEILTLKEVFQIASNDHDAAINRYSRLSKKRENDKVKYEVTEDVYTSRKKQHQTMMHYFCALNTLQYKKKIALLEPLLGYMQAQISFFKMGSENLNGQLEEFLANIGTSVQNVRREMDGDVETMQQTIEDLEVASDPLYLPDPDPTKFPINRNLTRKAGYLNARNKTGLVSSTWDRQFYFTQGGNLMSQARGDVAGGLAMDIDNCSVMAVDCEDRRYCFQITSFDGKKSSILQAESKKDHEEWICTINNISKQIYLSENPEETAARVNQSALEAVTPSPSFQQRHESLRPGGQSRPPTARTSSSGSLGSESTNLAALSLDSLVAPDTPIQFDIISPVCEDQPGQAKAFGQGGRRTNPFGESGGSTKSETEDSILHQLFIVRFLGSMEVKSDDHPDVVYETMRQILAARAIHNIFRMTESHLLVTCDCLKLIDPQTQVTRLTFPLPCVVLYATHQENKRLFGFVLRTSGGRSESNLSSVCYIFESNNEGEKICDSVGLAKQIALHAELDRRASEKQKEIERVKEKQQKELSKQKQIEKDLEEQSRLIAASSRPNQAGSEGQLVLSSSQSEESDLGEEGKKRESEA
binds: all assays above
